Taken from: PubChem BioAssay AID743121 (NCATS, 2013)
Here is an unselected part of about 26,000 reagents tested. In the full data, 167 (0.63%) got an active call. 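Calls are per gene from RSA p-values that are not deposited; an individual active-marked siRNA can sensitise only weakly.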 The numbers tell different reagents against one gene apart. Not all columns of the deposit are shown.

Screen: 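Partners whose loss is lethal together with topoisomerase I blockade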 (primary screen)
Cells: MDA-MB-231 cells, a human breast cancer line
Knock-down reagent: single siRNA against human genes, 20 nM siRNA (0.8 pmol per well)
Duration: 120 h (drug added 48 h after transfection, read 72 h later)
Challenge: camptothecin 20 nM (about EC30) for 72 h; vehicle 0.1% DMSO in parallel plates
Read-out: 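Cell viability by ATP luminescence (CellTiter-Glo) as % of non-targeting siRNA wells, and the log2 ratio of viability without drug over viability with camptothecin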
Direction: log2 vehicle/camptothecin viability: higher = stronger sensitisation to camptothecin; viability with camptothecin: higher = more viable cells
Units: viability with camptothecin in % of control
Active means: 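Active genes have an RSA gene-level p-value below 0.001, computed from the ratios of their separate siRNAs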

Knock-down of GAD2 #1 resulted in: log2 vehicle/camptothecin viability 0.354; viability with camptothecin 29.1; inactive.
With knock-down of GAD2 #2, the screen gave log2 vehicle/camptothecin viability -0.169; viability with camptothecin 83.5; inactive.
For GAD2 #3, the values are log2 vehicle/camptothecin viability -0.383; viability with camptothecin 56.4; inactive.
After knock-down of GAD2 #4, the screen gave log2 vehicle/camptothecin viability -0.291; viability with camptothecin 105; inactive.
LYPD3 #1 showed log2 vehicle/camptothecin viability 0.114; viability with camptothecin 61.8; inactive.
Against LYPD3 #2 the deposit lists log2 vehicle/camptothecin viability -0.189; viability with camptothecin 73.5; inactive.
For LYPD3 #3, the values are log2 vehicle/camptothecin viability 0.221; viability with camptothecin 30.2; inactive.
Knock-down of LYPD3 #4 came out at: log2 vehicle/camptothecin viability 0.126; viability with camptothecin 66.3; inactive.
Against DNASE1L3 #1, the entry reads log2 vehicle/camptothecin viability 0.078; viability with camptothecin 82.6; inactive.
Against DNASE1L3 #2, the entry reads log2 vehicle/camptothecin viability 0.152; viability with camptothecin 65; inactive.
Knock-down of DNASE1L3 #3 gave: log2 vehicle/camptothecin viability -0.279; viability with camptothecin 72.3; inactive.
After knock-down of DNASE1L3 #4 the results were log2 vehicle/camptothecin viability -0.0804; viability with camptothecin 32.5; inactive.
FBXO42 #1 showed log2 vehicle/camptothecin viability -0.638; viability with camptothecin 88.5; inactive.
After knock-down of FBXO42 #2 the results were log2 vehicle/camptothecin viability -0.282; viability with camptothecin 98.6; inactive.
Against FBXO42 #3 the deposit lists log2 vehicle/camptothecin viability -0.196; viability with camptothecin 66.4; inactive.
After knock-down of FBXO42 #4, the record shows log2 vehicle/camptothecin viability -0.187; viability with camptothecin 59.6; inactive.
ACADVL #1 showed log2 vehicle/camptothecin viability 0.765; viability with camptothecin 31.1; inactive.
After knock-down of ACADVL #2 the results were log2 vehicle/camptothecin viability 0.376; viability with camptothecin 66.5; inactive.
ACADVL #3 gave log2 vehicle/camptothecin viability -0.066; viability with camptothecin 97.4; inactive.
Silencing of ACADVL #4 gave: log2 vehicle/camptothecin viability -0.339; viability with camptothecin 112; inactive.
After knock-down of TIMP1 #1 the results were log2 vehicle/camptothecin viability -0.171; viability with camptothecin 94.3; inactive.
For TIMP1 #2, the entry reads log2 vehicle/camptothecin viability -0.474; viability with camptothecin 96.1; inactive.
TIMP1 #3 gave log2 vehicle/camptothecin viability -0.0562; viability with camptothecin 85.2; inactive.
Depletion of F8 #1 gave: log2 vehicle/camptothecin viability -0.449; viability with camptothecin 76; inactive.
Against F8 #2, the entry reads log2 vehicle/camptothecin viability 0.143; viability with camptothecin 91; inactive.
F8 #3 gave log2 vehicle/camptothecin viability -0.0419; viability with camptothecin 81.2; inactive.
Silencing of F8 #4 came out at: log2 vehicle/camptothecin viability -0.266; viability with camptothecin 121; inactive.
Knock-down of IRAK4 #1 resulted in: log2 vehicle/camptothecin viability 0.217; viability with camptothecin 87.5; inactive.
After knock-down of IRAK4 #2, the screen gave log2 vehicle/camptothecin viability 0.111; viability with camptothecin 63; inactive.
Depletion of IRAK4 #3 resulted in: log2 vehicle/camptothecin viability 0.19; viability with camptothecin 52.1; inactive.
Against IRAK4 #4, the values are log2 vehicle/camptothecin viability 0.0521; viability with camptothecin 87.9; inactive.
With knock-down of HCST #1, the record shows log2 vehicle/camptothecin viability -0.205; viability with camptothecin 53.8; inactive.
Against HCST #2 the deposit lists log2 vehicle/camptothecin viability -0.159; viability with camptothecin 69.7; inactive.
Knock-down of HCST #3 resulted in: log2 vehicle/camptothecin viability -0.144; viability with camptothecin 92.1; inactive.
Against HCST #4, the entry reads log2 vehicle/camptothecin viability -0.178; viability with camptothecin 29.5; inactive.
ADGRF3 #1 showed log2 vehicle/camptothecin viability -0.0778; viability with camptothecin 117; inactive.
For ADGRF3 #2, the values are log2 vehicle/camptothecin viability -0.386; viability with camptothecin 104; inactive.
Against ADGRF3 #3 the deposit lists log2 vehicle/camptothecin viability -0.34; viability with camptothecin 97.1; inactive.
ADGRF3 #4 scored log2 vehicle/camptothecin viability -0.0349; viability with camptothecin 71.1; inactive.
SIGLEC17P #1 showed log2 vehicle/camptothecin viability -0.279; viability with camptothecin 46.7; inactive.
SIGLEC17P #2 scored log2 vehicle/camptothecin viability -0.0643; viability with camptothecin 41.9; inactive.
Silencing of SIGLEC17P #3 came out at: log2 vehicle/camptothecin viability -0.0137; viability with camptothecin 91.4; inactive.
SIGLEC17P #4 showed log2 vehicle/camptothecin viability -0.182; viability with camptothecin 77.4; inactive.
CACNA1S #1 gave log2 vehicle/camptothecin viability 0.121; viability with camptothecin 53; inactive.
For CACNA1S #2, the entry reads log2 vehicle/camptothecin viability -0.033; viability with camptothecin 101; inactive.
With knock-down of CACNA1S #3, the screen gave log2 vehicle/camptothecin viability -0.149; viability with camptothecin 42.7; inactive.
With knock-down of CACNA1S #4, the record shows log2 vehicle/camptothecin viability -0.193; viability with camptothecin 76.9; inactive.
